The results in this text go back to paper PMC6913127, “Structures of MERS1, the 5′ processing enzyme of mitochondrial mRNAs in Trypanosoma brucei” (RNA, 2020).

Assay [1] has as its target T1, fluoresceinated control peptide F-….
T1 sequence (peptide, fluorescein (F-) printed at the N-terminus): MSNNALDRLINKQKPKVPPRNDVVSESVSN
In words: fluorescence polarisation; purified MERS1 titrated into 1 nM fluoresceinated peptide; 25 mM Tris HCl pH 7.5, 5% (v/v) glycerol, 150 mM NaCl; both purified. On the technique in general: Fluorescence polarisation rises when a labelled molecule tumbles more slowly, as on binding a larger partner.

Assay [2] concerns the target T2, fluoresceinated MERS2 peptide with two proline substitutions F-… (T. brucei).
T2 sequence (peptide, fluorescein (F-) printed at the N-terminus): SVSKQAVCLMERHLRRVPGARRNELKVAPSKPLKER
The assay is described as above.

These are yes or no findings as the source states them, for the method shown. Some entries that bind do so weakly or less than the wild type. Sequences can lack the tags named with a protein.

B1: T. brucei MERS1(37–395), his-tagged (enzyme, UniProt B6SBM0 37-395)
chain: LVPRGSMDDALRGELASALDTEGHALPFDVHLQQPHSSGDGTAGDTSTIQLEKLSHPPARFDLLTNSFVYKWQTKAALARKVSGPMREWAAELKYRTGVHIELEPTYPERLSENAVKGSGSDDGDGTQWGAYETADDVDITVYLFGSERGIFNCHKLMEAAIQQDPVYVRLGIFRRLANSSEVEWLMLRRINRELRPPDIPPISLKLPGKWTLLYERYKEAAIRTLWEETGITVDASNVYPTGHLYQTVPQYYWRVPVRYFVAEVPSDIRVEGPQVVPLQYMRNWDARLLRQSPDPIDRAWAQLADPATGCAWMKASMIDQLQKPLRGDNYMAIRYTPPPYSNLQEVVGLGDGSITPSTGNGEDAS
B1: the binding entry in assay [1] is recorded as “no binding”; in assay [2], “binds weakly”.
